Results deposited as PubChem BioAssay AID743454 (Peter MacCallum Cancer Centre, 2014).
Here is a random part of about 18,000 reagents. 450 of them (2.5%) were called active. 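Single biological run; no consistent viability z cut-off exists, so the class columns, not z-scores, define the calls.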 The numbers tell different reagents against one gene apart.

Aim: 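Genes whose loss kills vorinostat-resistant colon cancer cells under vorinostat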 (primary screen)
Cell system: human HCT116-VR colon cancer cells, selected for vorinostat resistance
Knock-down reagent: siRNA pool against human genes, 40 nM siRNA pool
Time to read-out: vorinostat for 24 h, read-out about 72 h after transfection
Challenge: vorinostat at 2.5 µM final
Read-out: 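Two measures, CellTiter-Fluor viability and luminescent caspase 3/7 activity, each as fold change against same-plate mock wells, mean of duplicates, then screen-wide robust z-score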
Direction: viability robust z-score: higher = more viable cells than screen typical; caspase robust z-score: higher = more caspase 3/7 activity than screen typical
Hit rule: 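Hits are knock-downs in viability class RV1/RV2 or caspase class CA1/CA2, excluding ones that killed cells in the no-drug cell-count arm; hits then retested with single siRNAs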

Target gene,pool no.,viability hit class,caspase hit class,viability robust z-score,caspase robust z-score,outcome
TCIM (transcriptional and immune response regulator),1,no change,no change,0.67,-0.57,inactive
CHRNA9 (cholinergic receptor nicotinic alpha 9 subunit),1,no change,no change,0.3,-0.52,inactive
SLC52A2,1,no change,no change,0.36,0.96,inactive
UGT2A3 (UDP glucuronosyltransferase family 2 member A3),1,no change,no change,0.32,-0.9,inactive
ATP5MC1 (ATP synthase membrane subunit c locus 1),1,no change,no change,0.84,-0.2,inactive
TIMM9 (translocase of inner mitochondrial membrane 9),1,no change,no change,0.75,-0.3,inactive
OBSCN,1,no change,no change,-1.15,-1,inactive
OBSCN,2,no change,no change,-0.63,0.08,inactive
GNPDA2 (glucosamine-6-phosphate deaminase 2),1,no change,no change,-0.28,0.22,inactive
MNT (MAX network transcriptional repressor),1,no change,no change,-1.37,2,inactive
CNOT1 (CCR4-NOT transcription complex subunit 1),1,no change,CA2 (caspase activation),-1.74,13.5,active
RFXANK (regulatory factor X associated ankyrin containing protein),1,no change,no change,0.24,-0.07,inactive

Continued; the last 2 above are carried over.
Target gene,pool no.,viability hit class,caspase hit class,viability robust z-score,caspase robust z-score,outcome
CNOT1 (CCR4-NOT transcription complex subunit 1),1,no change,CA2 (caspase activation),-1.74,13.5,active
RFXANK (regulatory factor X associated ankyrin containing protein),1,no change,no change,0.24,-0.07,inactive
ABHD18 (abhydrolase domain containing 18),1,no change,no change,0.3,0.83,inactive
TRIP4 (thyroid hormone receptor interactor 4),1,no change,no change,-0.22,-0.96,inactive
UNC45A (unc-45 myosin chaperone A),1,no change,no change,-0.12,1.37,inactive
KANSL1L (KAT8 regulatory NSL complex subunit 1 like),1,no change,no change,0.07,-0.9,inactive
PDCD11 (programmed cell death 11),1,no change,no change,-0.68,1.46,inactive
SIAH3 (siah E3 ubiquitin protein ligase family member 3),1,no change,no change,-0.65,-0.76,inactive
CTTN (cortactin),1,no change,no change,1.1,0,inactive
FMO5 (flavin containing dimethylaniline monoxygenase 5),1,no change,no change,0.84,0.03,inactive
TPO (thyroid peroxidase),1,no change,no change,-1.33,1.62,inactive
RARRES1 (retinoic acid receptor responder 1),1,no change,no change,1.01,-0.36,inactive
PRKCB (protein kinase C beta),1,no change,no change,-0.63,-0.19,inactive
